Reference: patent publication US20030003485A1, “Methods for identifying antigens” (Ludwig Institute for Cancer Research, priority 2001, published 2003)
At least one peptide structure holds a part that was inferred or is arguable (an end, a ring closure or a residue). Ends that are not written are not given here.

Tested on: CTL clone B-24
Assay: IFNγ ELISPOT assay with CTL clone B-24, peptide-pulsed stimulator cells and antibody blocking
Type: cell-based, mouse
Procedure: ELISPOT assay. […] CTL were incubated with stimulator cells on the coated membrane in 96- or 24-well plates for 18 hr at 37° C. under 5% CO2 in air. After culture, the membranes were thoroughly washed with distilled water and incubated with detection antibody for 90 min at 37° C. The IFNγ spots were developed by alkaline phosphatase-conjugated substrate kit (Bio-Rad, Hercules, Calif.) and counted with a dissecting microscope.

IPGLPLSL [pRL1a, IPGLPLSL]
number of IFNγ spots (5,000 B-24 cells, 10,000 CMS8 stimulator cells pulsed with peptide, 96-well plates): 629 spots
IFNγ ELISPOT of B-24 against peptide pulsed P1.HTR (peptide pulsed P1.HTR target cells): showed cytotoxicity and IFNγ ELISPOT
